# Data reported in article PMC7819943, “Rice protein-binding microarrays: a tool to detect cis-acting elements near promoter regions in rice”.
# Amino acid sequences for entries named in this document (tags omitted).
# UniProt Q0JBA9, entry or part of it: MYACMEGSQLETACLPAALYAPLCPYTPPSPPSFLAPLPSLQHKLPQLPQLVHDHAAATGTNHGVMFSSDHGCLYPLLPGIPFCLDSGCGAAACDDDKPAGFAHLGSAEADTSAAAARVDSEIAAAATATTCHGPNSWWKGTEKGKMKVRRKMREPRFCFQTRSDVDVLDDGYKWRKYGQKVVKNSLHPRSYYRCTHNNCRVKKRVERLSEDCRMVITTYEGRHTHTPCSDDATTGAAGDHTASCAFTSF
# The list shows a part of the results.
# Target: OsWRKY34 (Oryza sativa, UniProt Q0JBA9 1-250)
# Test: protein-binding microarray (RPBM); PBS, 2% BSA, 51.3 ng/ul salmon testes DNA, 50 uM zinc acetate, 200 nM TF, 25 C, 1 h; high values mean tight binding
# Conditions: protein: recombinant; tags: N-terminal polyhistidine and DsRed monomer fusion (pET32a); label: CyDye5-dUTP incorporated in the synthesized complementary strand; 3' TTTTT single-stranded linker to array surface; dsDNA, one strand shown
# Summary of the method: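 Binding signal here means per-feature fluorescence intensity in arbitrary units. The values were read on an Axon 4000B scanner after a custom Agilent array, double-stranded by primer extension with Cy5-dUTP, was incubated with 200 nM protein at 25 °C for 1 h in PBS with 2% BSA, salmon testes DNA and 50 µM zinc acetate, then washed. The proteins were transcription factors with an N-terminal polyhistidine tag and DsRed, expressed in E. coli BL21-CodonPlus and purified on Ni–NTA.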
row,Sequence,binding signal
1,GTCTATTTATTCAGAAGGGCCTCAATTACAAGCTTGGCAACGGAGTCACCTAGTGCAG,8100 fluorescence intensity (a.u.)
2,TTTATCTTTCTTTGTTTGTCCCTTGCATCATTACTCATATCGGAGTCACCTAGTGCAG,14200 fluorescence intensity (a.u.)
3,CTCACTCGATTTTCTCACTCAAATTTACAGTGCATTTTCTCGGAGTCACCTAGTGCAG,8760 fluorescence intensity (a.u.)
4,CCACCACTGACCGATTCACCTCGCCGCCCGCCGCCCGCCCCGGAGTCACCTAGTGCAG,8520 fluorescence intensity (a.u.)
5,TTTTGCTTTGGTTGGTTTGCTCGTTTTTTTTTTCTTTTCTCGGAGTCACCTAGTGCAG,19600 fluorescence intensity (a.u.)
6,CACCCAAACCAAATCAAATCCGTCCATCCATTCGCCTCTACGGAGTCACCTAGTGCAG,8960 fluorescence intensity (a.u.)
7,CGAACCTCGCTCGTCAGTCTCTCGATTTCTCGAACCTTCTCGGAGTCACCTAGTGCAG,9120 fluorescence intensity (a.u.)
8,GATATTACTTTAATTACTTTTCCTTTAGTACTCTTCTTTTCGGAGTCACCTAGTGCAG,10600 fluorescence intensity (a.u.)
9,CAGTGCTACTTATTCACTTCCTTTTGTTTTCTGCATCAGGCGGAGTCACCTAGTGCAG,10800 fluorescence intensity (a.u.)
10,CTCCTTTTGGATCCCTGTGTTTGGCCAACTCGCTTTTGTCCGGAGTCACCTAGTGCAG,15200 fluorescence intensity (a.u.)
11,CTTTTGACCCGTCTTTGACCACGCCCCAGGCAAGCCAGCCCGGAGTCACCTAGTGCAG,10700 fluorescence intensity (a.u.)
12,GTCGTTGCAATTTCTCAGTAATTTTACCGATTTACTATTTCGGAGTCACCTAGTGCAG,9460 fluorescence intensity (a.u.)
13,GTATCTCATCAAATCGTACGCGCGCCTGCATGCATATGGCCGGAGTCACCTAGTGCAG,9560 fluorescence intensity (a.u.)
14,CATCGTCATCGCAATATCAAATCCACATCCACATCTCCATCGGAGTCACCTAGTGCAG,8100 fluorescence intensity (a.u.)
15,AAAAAACCATCTATTTTTTTCTACCCATGTACATATATTTCGGAGTCACCTAGTGCAG,8750 fluorescence intensity (a.u.)
16,AACCTAGAAACCTCCATATACATACACCACATCACTAAACCGGAGTCACCTAGTGCAG,8680 fluorescence intensity (a.u.)
17,AATCACACCTATAAATATCCACTCCCGTAGCTATTCAGAACGGAGTCACCTAGTGCAG,10600 fluorescence intensity (a.u.)
18,CTGTTTATTTTTACCATATATTCCGTTACTTGAAGATTTCCGGAGTCACCTAGTGCAG,10900 fluorescence intensity (a.u.)
19,CCCGCCCAGCCCAACCACTTCACTCCTCCCACTCCAGTACCGGAGTCACCTAGTGCAG,8440 fluorescence intensity (a.u.)
20,ACTGATGCCACCTTACCCATGTCCACGCCTTCCAGTGTTGCGGAGTCACCTAGTGCAG,8700 fluorescence intensity (a.u.)
21,ATTGTTGGAGTGGGTGGAGTGGGGAAAACAGCTCTTGCTCCGGAGTCACCTAGTGCAG,9300 fluorescence intensity (a.u.)

row,Sequence,binding signal
1,CACCCTTATACTCTGTGAACCCTTACATAATGTTCACGCCCGGAGTCACCTAGTGCAG,10500 fluorescence intensity (a.u.)
2,TCCCACGATTTCCTTTCCTGCTTTTCTCATCCCTTTTGTTCGGAGTCACCTAGTGCAG,16500 fluorescence intensity (a.u.)
3,TCCAGACGTGCAATGCAACACAGTTCACAGCATAGAAGCGCGGAGTCACCTAGTGCAG,9080 fluorescence intensity (a.u.)
4,TCCACTAACCAACCTGACCCAAGCATCCAACTCCATCGCCCGGAGTCACCTAGTGCAG,10100 fluorescence intensity (a.u.)
5,ACATCCACCTATCCTTTAGTTTCCATCTCCTTTAAATTCCCGGAGTCACCTAGTGCAG,13000 fluorescence intensity (a.u.)
6,ACTAGCTGGGCCCCTTTGGGATGTCTCCTCTCTCCACTGACGGAGTCACCTAGTGCAG,11500 fluorescence intensity (a.u.)
7,CACCTCGCCGGCGGCCGCACATGACCACCACCACCGCAGCCGGAGTCACCTAGTGCAG,10500 fluorescence intensity (a.u.)
8,TTGCAAGCCAAACAACTGCCTCGGCACAACCAAGATTCTACGGAGTCACCTAGTGCAG,8170 fluorescence intensity (a.u.)
9,ACATATGTACGGTGTGATTGTGGTGTTATCTACCAAGATTCGGAGTCACCTAGTGCAG,8530 fluorescence intensity (a.u.)
10,TTTCTGTGTTCAACATTTGACCGTCCGTCTTATTTAAAAACGGAGTCACCTAGTGCAG,8370 fluorescence intensity (a.u.)
11,CATTTTTTTTCTTAATCCATATTTGACTTGGATGTTGTTTCGGAGTCACCTAGTGCAG,8390 fluorescence intensity (a.u.)
12,ACGTTTCTCCTGGCCAAGAAATGCCGCCATAAACAACTCTCGGAGTCACCTAGTGCAG,8120 fluorescence intensity (a.u.)
13,TTTTCATGATCTTTGCTTCTTTTTTTAGATTGATCTGTCTCGGAGTCACCTAGTGCAG,9770 fluorescence intensity (a.u.)
14,CTCTCTACACGGCCACCGTACCGTTCATATGCCGGTACATCGGAGTCACCTAGTGCAG,8980 fluorescence intensity (a.u.)
15,CCGCGCCTCCGCCTCCTCCGCGTCCCCGCGCCTCTCCTTCCGGAGTCACCTAGTGCAG,8150 fluorescence intensity (a.u.)
16,CTGTATCTAATTCGGTTTGTTGTTCACCGTCCATTCCATTCGGAGTCACCTAGTGCAG,9690 fluorescence intensity (a.u.)
17,CGGTTCTGAATTTCTGATTTCTGCACTACTCCGTGTTCTTCGGAGTCACCTAGTGCAG,8710 fluorescence intensity (a.u.)
18,ATCGCGCGTCGTCTCCACCTTTCTTGCTTGTGCCACCAAGCGGAGTCACCTAGTGCAG,8980 fluorescence intensity (a.u.)
19,TGTTCATTCCAGTTCCACTACTCTACTCTTGATTTCTCACCGGAGTCACCTAGTGCAG,9420 fluorescence intensity (a.u.)
20,ACTGCCTCCTTTTATTGAAGCTGCTATTTCTGTGAGTATTCGGAGTCACCTAGTGCAG,9930 fluorescence intensity (a.u.)
21,CCCACCACCTCGTCCTCACCGTCATCGCTGGCGCTGCCTGCGGAGTCACCTAGTGCAG,8690 fluorescence intensity (a.u.)

# Reformatted with bars between the fields: entries from further up
row | Sequence | binding signal
15 | AAAAAACCATCTATTTTTTTCTACCCATGTACATATATTTCGGAGTCACCTAGTGCAG | 8750 fluorescence intensity (a.u.)
16 | AACCTAGAAACCTCCATATACATACACCACATCACTAAACCGGAGTCACCTAGTGCAG | 8680 fluorescence intensity (a.u.)
17 | AATCACACCTATAAATATCCACTCCCGTAGCTATTCAGAACGGAGTCACCTAGTGCAG | 10600 fluorescence intensity (a.u.)
